Article PMC9085225
Where two headings read alike, the source gives them in different places. Results are given in words; binding and its absence hold for the method and conditions named. Binding seen in cells or lysates may run through a third protein. Some binding calls cover weakened binding; strength is not graded here. Blank lines part the entries; values can stand above or below the molecule they belong to.

Protein sequences, listed by entry. Tags and fused reporters are not part of them.
UniProt O88907: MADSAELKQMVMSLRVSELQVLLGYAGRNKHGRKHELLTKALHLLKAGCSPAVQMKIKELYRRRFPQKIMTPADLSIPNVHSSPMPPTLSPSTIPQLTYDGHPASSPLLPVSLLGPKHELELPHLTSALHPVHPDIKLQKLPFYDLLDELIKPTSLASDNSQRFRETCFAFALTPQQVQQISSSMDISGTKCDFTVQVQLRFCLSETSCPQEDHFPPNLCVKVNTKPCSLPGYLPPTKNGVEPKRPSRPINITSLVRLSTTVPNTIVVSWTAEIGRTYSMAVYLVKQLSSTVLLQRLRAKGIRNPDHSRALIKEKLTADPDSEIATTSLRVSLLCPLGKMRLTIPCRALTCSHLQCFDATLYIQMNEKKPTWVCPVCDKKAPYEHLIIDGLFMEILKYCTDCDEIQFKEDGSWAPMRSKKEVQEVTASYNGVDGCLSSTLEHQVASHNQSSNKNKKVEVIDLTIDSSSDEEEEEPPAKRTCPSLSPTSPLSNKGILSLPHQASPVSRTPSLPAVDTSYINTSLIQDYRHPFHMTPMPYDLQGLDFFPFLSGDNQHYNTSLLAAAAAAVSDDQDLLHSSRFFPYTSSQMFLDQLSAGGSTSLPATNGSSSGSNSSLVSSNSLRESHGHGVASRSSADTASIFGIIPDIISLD

Assays:
[1] = biological target: Ubiquitin Conjugating Enzyme E2I (UBE2I) (mouse (endogenous in TC-1)) (UniProt P63280); assay: co-IP; cells lysed in RIPA lysis buffer; supernatant incubated with antibody-precoated agarose beads; Western blotting; IgG antibody as control
[2] = biological target: Ubiquitin Conjugating Enzyme E2I (UBE2I) (mouse (endogenous in TC-1)) (UniProt P63280); assay: as above; remark: listed apart in the source

binding [1]: binds
Molecule: protein inhibitor of activated signal transducer and activators of transcription 1 (PIAS1) (from UniProt O88907 1-651)

binding [2]: binds
B1: nuclear receptor interacting protein 1 (NRIP1) (protein, UniProt Q8CBD1 1-1161)
chain: MTHGEELGSDVHQDSIVLTYLEGLLMHQAAGGSGTAINKKSAGHKEEDQNFNLSGSAFPSCQSNGPTVSTQTYQGSGMLHLKKARLLQSSEDWNAAKRKRLSDSIVNLNVKKEALLAGMVDSVPKGKQDSTLLASLLQSFSSRLQTVALSQQIRQSLKEQGYALSHESLKVEKDLRCYGVASSHLKTLLKKSKTKDQKSGPTLPDVTPNLIRDSFVESSHPAVGQSGTKVMSEPLSCAARLQAVASMVEKRASPAASPKPSVACSQLALLLSSEAHLQQYSREHALKTQNAHQVASERLAAMARLQENGQKDVGSSQLSKGVSGHLNGQARALPASKLVANKNNAATFQSPMGVVPSSPKNTSYKNSLERNNLKQAANNSLLLHLLKSQTIPTPMNGHSQNERASSFESSTPTTIDEYSDNNPSFTDDSSGDESSYSNCVPIDLSCKHRIEKPEAERPVSLENLTQSLLNTWDPKIPGVDIKEDQDTSTNSKLNSHQKVTLLQLLLGHKSEETVERNASPQDIHSDGTKFSPQNYTRTSVIESPSTNRTTPVSTPPLYTASQAESPINLSQHSLVIKWNSPPYACSTPASKLTNTAPSHLMDLTKGKESQAEKPAPSEGAQNSATFSASKLLQNLAQCGLQSSGPGEEQRPCKQLLSGNPDKPLGLIDRLNSPLLSNKTNAAEESKAFSSQPAGPEPGLPGCEIENLLERRTVLQLLLGNSSKGKNEKKEKTPARDEAPQEHSERAANEQILMVKIKSEPCDDFQTHNTNLPLNHDAKSAPFLGVTPAIHRSTAALPVSEDFKSEPASPQDFSFSKNGLLSRLLRQNQESYPADEQDKSHRNSELPTLESKNICMVPKKRKLYTEPLENPFKKMKNTAVDTANHHSGPEVLYGSLLHQEELKFSRNELDYKYPAGHSSASDGDHRSWARESKSFNVLKQLLLSENCVRDLSPHRSDSVPDTKKKGHKNNAPGSKPEFGISSLNGLMYSSPQPGSCVTDHRTFSYPGMVKTPLSPPFPEHLGCVGSRPEPGLLNGCSVPGEKGPIKWVIADMDKNEYEKDSPRLTKTNPILYYMLQKGGGNSVTTQETQDKDIWREPASAESLSQVTVKEELLPAAETKASFFNLRSPYNSHMGNNASRPHSTNGEVYGLLGNALTIKKESE
